The structures given here were assigned with low confidence; some may be wrong.
What was measured:
[1] = tested on: SW48 (CRC, MSI); test: Cell proliferation inhibition assay (CellTiter-Glo), SW48; settings: read-out: SW48 (CRC, MSI); 120 hours, CellTiter-Glo
[2] = Pharmacokinetics in dogs (IV and PO)
Protocol: Using mice, rats, dogs, and monkeys as test animals, the compounds of the present disclosure were studied after intravenous bolus injection and oral administration. Plasma samples were collected at specific time points, and the concentrations of the compounds in plasma were detected by LC-MS/MS. PK parameters were calculated to reflect the pharmacokinetic behavior of the compounds of the present disclosure in mouse plasma in vivo.
Beagle dogs, male, Beijing Marshall Biotechnology Co.,Ltd.
Administration information for dog: The IV administration dose was 0.5 mg/kg, with an administration volume of 0.5 mL/kg; the IV administration dose was 1 mg/kg, with an administration volume of 0.5 mL/kg; the PO administration dose was 1 mg/kg, with an administration volume of 2 mL/kg; and the vehicle was 10 vol% DMSO/20 vol% Solutol/70 vol% Saline.
After administration to mice, rats, dogs, and monkeys, blood was collected from the vein at 0.0833 (IV), 0.25, 0.5, 1, 2, 4, 8, and 24 hours, with volumes of 0.025, 0.2, 0.5, and 0.6 mL, respectively, placed into EDTA-K2 tubes, and centrifuged at 4°C and 2000 g for 10 min to separate plasma, which was stored at -80°C.
Dog plasma sample processing: • 1) 50 µL of plasma sample was added to 200 µL of acetonitrile for precipitation, vortexed to mix, and then centrifuged for 15 minutes. • 2) The treated supernatant was diluted with water, and the concentration of the test compound was analyzed by LC/MS/MS.
Herein, Cmax represents the maximum plasma concentration; CL represents clearance; Vss represents the volume of distribution at steady state; T1/2 represents the terminal elimination half-life; MRTInf represents the mean residence time; AUC represents the area under the plasma concentration-time curve; and F represents bioavailability. Table 6 Pharmacokinetic parameters of some compounds of the present disclosure after intravenous injection and oral administration in balb/c nude mice

Amino acid sequences for entries named in this document (tags omitted). Residues count along the entry.
UniProt Q14191, 517-1238 limits assumed: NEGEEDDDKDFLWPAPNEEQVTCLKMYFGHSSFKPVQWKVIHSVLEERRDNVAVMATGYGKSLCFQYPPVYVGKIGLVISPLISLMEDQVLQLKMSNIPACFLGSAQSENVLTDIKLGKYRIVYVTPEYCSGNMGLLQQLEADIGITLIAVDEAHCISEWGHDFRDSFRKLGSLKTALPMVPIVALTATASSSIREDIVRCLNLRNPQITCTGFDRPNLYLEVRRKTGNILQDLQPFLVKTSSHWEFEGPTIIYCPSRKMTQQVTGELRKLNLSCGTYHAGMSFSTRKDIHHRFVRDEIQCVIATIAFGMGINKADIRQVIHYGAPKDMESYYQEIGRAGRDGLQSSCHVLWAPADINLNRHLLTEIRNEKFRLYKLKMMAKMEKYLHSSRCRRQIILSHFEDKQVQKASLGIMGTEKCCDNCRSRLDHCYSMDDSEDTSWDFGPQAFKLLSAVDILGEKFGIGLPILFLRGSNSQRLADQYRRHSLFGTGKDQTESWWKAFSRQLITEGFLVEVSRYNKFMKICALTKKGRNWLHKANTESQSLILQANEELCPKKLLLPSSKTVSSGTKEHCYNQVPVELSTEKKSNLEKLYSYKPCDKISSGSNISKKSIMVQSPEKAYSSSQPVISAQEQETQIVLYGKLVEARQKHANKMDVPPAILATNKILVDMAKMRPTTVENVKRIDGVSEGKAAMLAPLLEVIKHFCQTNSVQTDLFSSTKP

[3] = target: WRN protein (AA N517-P1238) (Homo sapiens, UniProt Q14191); test: In vitro WRN enzymatic activity assay (ADP-Glo ATPase assay); settings: read-out: ADP-Glo; 10 nM WRN enzyme, 3 hours pre-incubation at 25°C, ssDNA substrate
[4] = Pharmacokinetics in balb/c nude mice (IV and PO); settings: for F: 10 mg/kg (vs IV 1 mg/kg)
[5] = tested on: human colorectal cancer SW48 cell subcutaneous xenograft tumor; test: In vivo pharmacodynamic study in the SW48 xenograft tumor model; settings: for TGI (%) Day21: N=6
Protocol: To evaluate the in vivo efficacy of the compounds in a human colorectal cancer SW48 cell subcutaneous xenograft tumor mouse model.
• Species: Mouse • Strain: NU/NU mouse • Age and body weight: 6-8 weeks of age, weighing 20-24 g • Sex: Female • Quantity: 110 (including remaining mice from grouping) • Supplier: Beijing Vital River Laboratory Animal Technology Co., Ltd. • Animal certificate: 110011241105714757
Human colon cancer SW48 cells (supplier: ECACC; catalog No.: 89012702) were cultured in vitro as a monolayer. The culture conditions were as follows: L-15 medium (supplier: Gibco; catalog No.: 11415-064) supplemented with 2 mM glutamine (supplier: Gibco; catalog No.: 25030-081), 10% fetal bovine serum (supplier: Excell; catalog No.: FSP500), and 1% antibiotics (supplier: Gibco; catalog No.: 15240-062) in a cell culture incubator at 37°C with 5% CO2. Routine passaging was performed by digestion twice a week. When the cell confluence reached 80% to 90% and the cell number met the requirement, the cells were harvested, counted, and inoculated.
A 0.1 mL cell suspension containing 3.0*10^6 SW48 cells (the cells were suspended in medium L15:Matrigel =1:1) was subcutaneously inoculated into the right dorsal flank of each mouse. On Day 7 after inoculation, animals with uniform and appropriate tumor sizes were selected for enrollment, with the mean tumor volume reaching 117 mm^3 (range: 89 mm^3 - 161 mm^3). The animals were assigned to groups according to tumor volume using a randomized block design, and dosing was initiated.
The health status and mortality of the animals were monitored daily. Routine inspections included observing the effects of tumor growth and drug treatment on the animals' daily behavioral performance, such as behavioral activity, food and water intake (visual inspection only), body weight changes (body weight was measured three times per week), appearance signs, or other abnormal conditions. Based on the number of animals in each group, the number of animal deaths and side effects within the group were recorded.
Tumor diameters were measured three times per week using a vernier caliper. The formula for calculating tumor volume was: V = 0.5a × b^2, wherein a and b represent the long and short diameters of the tumor, respectively.
The anti-tumor efficacy of the compounds was evaluated by the tumor growth inhibition rate TGI (%). The TGI (%) was calculated as: TGI (%) = [1 - (mean tumor volume of a treatment group at the end of administration - mean tumor volume of the treatment group at the start of administration) / (mean tumor volume of the vehicle control group at the end of treatment - mean tumor volume of the vehicle control group at the start of treatment)] × 100%.

[6] = tested on: SW620 (CRC, MSS); test: Cell proliferation inhibition assay (CellTiter-Glo), SW620; settings: read-out: SW620 (CRC, MSS), 120 hours

SMILES	IC50 [1]	AUC ([2]; IV, 0.5 mg/kg)	T1/2 ([2]; IV, 0.5 mg/kg)	AUC ([2]; PO, 1 mg/kg)	Cmax ([2]; PO, 1 mg/kg)	F ([2]; PO, 1 mg/kg)	T1/2 ([2]; PO, 1 mg/kg)	IC50 [3]	AUC ([4]; IV, 1 mg/kg)	T1/2 ([4]; IV, 1 mg/kg)	AUC ([4]; PO, 10 mg/kg)	Cmax ([4]; PO, 10 mg/kg)	T1/2 ([4]; PO, 10 mg/kg)	F ([4]; PO)	anti-tumor effects (in words) ([5]; 3 mg/kg)	TGI (%) Day21 ([5]; 3 mg/kg)	IC50 [6]	other results
[2H]C1([2H])CCC(c2nc3n4c(c(N5CCN(C(=O)c6ncnc(C)c6O)[C@H]6CC[C@@H]65)c(=O)n3n2)[C@H](C)C[C@@H]4C(=O)Nc2scc(C(F)(F)F)c2C)=CCO1	7.29 nM	1.345 µM·h	2.89 h	4.199 µM·h	705 nM	111%	3.72 h	2.66 nM	1652 ng·h/mL	1.27 h	8266 ng·h/mL	3543 ng/mL	1.42 h	51%	significant anti-tumor effects	101.70%	> 10000 nM	CL ([2]; IV, 0.5 mg/kg): 11 mL/day/kg; anti-tumor effects (in words) ([5]; 10 mg/kg): significant anti-tumor effects; TGI (%) Day21 ([5]; 10 mg/kg): 102.37%
[2H]C1([2H])CCC(c2nc3n4c(c(N5CCN(C(=O)c6ncnc(C)c6O)[C@H]6CC[C@@H]65)c(=O)n3n2)[C@H](C)C[C@@H]4C(=O)Nc2ccc(C(F)(F)F)cc2Cl)=CCO1	4.47 nM	1.475 µM·h	6.49 h	3.097 µM·h	421 nM	107%	7.61 h	2.15 nM	3528 ng·h/mL	2.17 h	22224 ng·h/mL	4923 ng/mL	2.14 h	60.8%	significant anti-tumor effects	103.09%	> 10000 nM	Cmax ([2]; IV, 0.5 mg/kg): 0.34 nM; TGI (%) Day21 ([5]; 0.3 mg/kg): 59.30%; anti-tumor effects (in words) ([5]; 1 mg/kg): significant anti-tumor effects; TGI (%) Day21 ([5]; 1 mg/kg): 101.86%

— patent EP4843985A1, “TRIAZOLOPYRIMIDINE DERIVATIVE, PREPARATION METHOD THEREFOR AND USE THEREOF” (dated 2026)
